No constants are given. Whether binding was seen depends on the method and setting. Binding seen in cells or lysates may run through a third protein. A result given as binding can be weak or reduced; the word gives no strength.
Tests used:
[1] = target: T1, PPARγ coactivator PGC-1α (rat (endogenous in primary FLSs of SD rats)) (UniProt Q9QYK2); experiment: co-IP; endogenous proteins in lysates of rat primary FLSs (OE/KD PPARγ-treated); IP/Co-IP lysis buffer; antibody with Protein A/G magnetic beads, 4 °C overnight; washed thrice with lysis buffer; Western blot; IgG control
T1 sequence: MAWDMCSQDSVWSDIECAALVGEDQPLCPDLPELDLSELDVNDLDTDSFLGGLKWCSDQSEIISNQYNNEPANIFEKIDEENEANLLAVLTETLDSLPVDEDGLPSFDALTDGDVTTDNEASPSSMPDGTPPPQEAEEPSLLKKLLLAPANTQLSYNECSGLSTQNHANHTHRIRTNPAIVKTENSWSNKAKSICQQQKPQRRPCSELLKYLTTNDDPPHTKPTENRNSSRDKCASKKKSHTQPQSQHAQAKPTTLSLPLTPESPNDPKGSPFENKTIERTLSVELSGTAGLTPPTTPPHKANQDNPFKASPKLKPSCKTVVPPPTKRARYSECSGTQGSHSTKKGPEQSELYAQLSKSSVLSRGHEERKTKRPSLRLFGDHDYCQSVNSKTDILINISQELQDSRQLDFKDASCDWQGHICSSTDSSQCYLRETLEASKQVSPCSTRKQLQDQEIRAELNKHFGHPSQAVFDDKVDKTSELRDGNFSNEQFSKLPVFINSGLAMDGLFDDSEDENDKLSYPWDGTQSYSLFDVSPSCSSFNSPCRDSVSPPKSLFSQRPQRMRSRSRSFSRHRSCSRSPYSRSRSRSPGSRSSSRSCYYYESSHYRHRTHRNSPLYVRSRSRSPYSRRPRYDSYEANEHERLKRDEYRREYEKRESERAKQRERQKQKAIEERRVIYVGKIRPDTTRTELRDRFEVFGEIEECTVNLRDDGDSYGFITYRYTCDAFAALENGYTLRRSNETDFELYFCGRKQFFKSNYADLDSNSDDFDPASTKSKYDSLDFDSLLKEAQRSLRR

[2] = target: T2, Annexin A1 (ANXA1) in chondrocytes (rat (in primary chondrocytes of SD rats)) (UniProt P07150); experiment: co-IP; lysates of rat primary chondrocytes; IP with anti-ANXA1 and anti-ERK antibodies, Protein A/G magnetic beads, 4 °C overnight; Western blot
T2 sequence: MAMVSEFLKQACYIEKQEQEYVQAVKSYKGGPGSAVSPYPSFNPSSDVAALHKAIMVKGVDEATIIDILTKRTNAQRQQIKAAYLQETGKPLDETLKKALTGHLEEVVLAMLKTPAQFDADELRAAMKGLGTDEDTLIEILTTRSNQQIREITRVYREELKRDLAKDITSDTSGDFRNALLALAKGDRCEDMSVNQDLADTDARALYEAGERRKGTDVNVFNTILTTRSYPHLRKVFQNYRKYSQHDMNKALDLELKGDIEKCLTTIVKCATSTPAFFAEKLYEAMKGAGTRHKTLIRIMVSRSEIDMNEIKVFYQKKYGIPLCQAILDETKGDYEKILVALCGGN

[3] = target: STAM1 (ESCRT-0 subunit), signal-transducing adaptor molecule 1 (rat (endogenous in primary FLSs of SD rats)); experiment: co-IP; endogenous proteins in lysates of rat primary FLSs (OE/KD PPARγ-treated); IP/Co-IP lysis buffer; antibody with Protein A/G magnetic beads, 4 °C overnight; washed thrice with lysis buffer; Western blot; IgG control

Question: Which binding [1] does the source give for “STAM1 (ESCRT-0 subunit), signal-transducing adaptor molecule 1” here?
Answer: Its binding is “binds”.

Question: “extracellular signal-regulated kinase (ERK) (enzyme)” was tested. Which binding [2] did it give?
Answer: The binding was “binds”.

B1: PPARγ coactivator PGC-1α (protein, UniProt Q9QYK2 1-796)
chain: T1 sequence
Question: With B1 as the molecule, how does the binding [3] read?
Answer: The binding was “binds”.

Source: article PMC12268348
